Patent US8067638B2, “Amide derivative and insecticide containing the same” (Mitsui Chemicals, Inc., priority 2005, dated 2011)
Some entries share one result that the patent states for a list of compounds.

test system: Diamondback Moth (Plutella xylostella); assay: Insecticidal test on diamondback moth (Plutella xylostella); assay type: in vivo; conditions: at 100 ppm; cabbage leaf immersed; second-instar larvae; counted 6 days after release; 25° C.
Description: Insecticidal Test on Diamondback Moth (Plutella xylostella)
(§1) A piece of cabbage leaf was immersed for 30 seconds in a liquid chemical prepared by diluting a test compound to a prescribed concentration. After air-drying, the piece was put into a 7-cm polyethylene cup and second-instar larvae of diamondback moths were released thereinto. The polyethylene cups were set in an isothermal chamber thermostated at 25° C. From the release 6 days later, the dead and alive were counted. The test was carried out with two replications of 5 insects per a plot.

Compound | mortality [%]
Cc1cc(C(O)(C(F)(F)Cl)C(F)(F)Cl)cc(C)c1NC(=O)c1cccc(NC(=O)c2ccccc2)c1 [1-434] | ≥ 70
O=C(Nc1cccc(C(=O)Nc2c(Cl)cc([N+](=O)[O-])cc2Cl)c1)c1ccccc1 [1-550] | ≥ 70
O=C(Nc1cccc(C(=O)Nc2c(Cl)cc(OCC(F)(F)C(F)(F)F)cc2Cl)c1)c1ccccc1 [1-430] | ≥ 70
O=C(Nc1cccc(C(=O)Nc2c(Br)cc(Cl)cc2C(F)(F)F)c1)c1ccccc1 [1-415] | ≥ 70
Cc1cc(I)cc(C)c1NC(=O)c1cccc(NC(=O)c2c(F)cccc2F)c1 [1-456] | ≥ 70
O=C(Nc1cccc(C(=O)Nc2c(Cl)cc(N3C(=O)c4ccccc4C3=O)cc2Cl)c1)c1ccccc1 [1-490] | ≥ 70
O=C(Nc1cccc(C(=O)Nc2ccc([N+](=O)[O-])cn2)c1)c1ccccc1 [1-439] | ≥ 70
CCOC(=O)c1cc(Br)c(NC(=O)c2cccc(N(C)C(=O)c3ccccc3)c2)c(Br)c1 [1-487] | ≥ 70
O=C(Nc1cccc(C(=O)Nc2c(Cl)cc(N3C(=O)CCC3=O)cc2Cl)c1)c1ccccc1 [1-489] | ≥ 70
Cc1cc(C(F)(C(F)(F)F)C(F)(F)F)cc(C)c1NC(=O)c1cccc(NS(=O)(=O)CC(F)(F)F)c1 [4-27] | ≥ 70
C=CS(=O)(=O)Nc1cccc(C(=O)Nc2c(C)cc(C(F)(C(F)(F)F)C(F)(F)F)cc2C)c1 [4-29] | ≥ 70
O=C(Nc1cccc(C(=O)Nc2c(Cl)cc(Br)cc2C(F)(F)F)c1)c1ccccc1 [1-417] | ≥ 70
CS(=O)(=O)c1cc(C(F)(C(F)(F)F)C(F)(F)F)ccc1NC(=O)c1cccc(NC(=O)c2ccccc2)c1 [1-425] | ≥ 70
O=C(Nc1c(Cl)cc(OCC(F)(F)C(F)(F)F)cc1Cl)c1cccc(NC(=O)c2cccnc2Cl)c1 [1-433] | ≥ 70
O=C(Nc1c(Br)cc(C(F)(F)F)cc1Br)c1cccc(NC(=O)c2c(F)cccc2F)c1 [1-429] | ≥ 70
Cc1cc(C(F)(C(F)(F)F)C(F)(F)F)cc(CO)c1NC(=O)c1cccc(NC(=O)c2ccccc2)c1 [1-571] | ≥ 70
O=C(Nc1cccc(C(=O)Nc2ccc(C(F)(F)F)cc2C(F)(F)F)c1)c1ccccc1 [1-340] | ≥ 70

test system: Common Cutworm (Spodoptera litura); assay: Insecticidal test on common cutworm (Spodoptera litura); assay type: in vivo; conditions: at 100 ppm; cabbage leaf immersed; second-instar larvae; counted 6 days after release; 25° C.
Description: Insecticidal Test on Common Cutworm (Spodoptera litura)
as §1, with “common cutworms” for “diamondback moths”

Compound | mortality [%]
O=C(Nc1c(Br)cc(OC(F)(F)C(F)F)cc1Br)c1cccc(NC(=O)c2cccnc2Cl)c1 [2-203] | ≥ 70
CCCS(=O)(=O)Nc1cccc(C(=O)Nc2c(C)cc(C(F)(C(F)(F)F)C(F)(F)F)cc2C)c1 [4-31] | ≥ 70
O=C(Nc1c(Cl)cc(-c2ccc(F)cc2)cc1SC(F)(F)F)c1cccc(NC(=O)c2cccnc2Cl)c1 [1-582] | ≥ 70
CN(C(=O)c1cccc(NC(=O)c2cccc([N+](=O)[O-])c2Cl)c1)c1c(Br)cc(OC(F)(F)C(F)C(F)(F)F)cc1Br (stereo not shown) [2-173] | ≥ 70
CN(C(=O)c1ccccc1F)c1cccc(C(=O)Nc2c(Br)cc(-n3nc(C(F)(F)F)cc3C(F)(F)F)cc2Br)c1 [1-585] | ≥ 70
O=C(Nc1cccc(C(=O)Nc2c(Br)cc(Br)cc2SC(F)(F)F)c1)c1ccccc1 [1-1] | ≥ 70
Cc1cc(OC(F)(F)C(F)C(F)(F)F)cc(C)c1NC(=O)c1cccc(NC(=O)c2ccccc2)c1F (stereo not shown) [2-192] | ≥ 70
O=C(Nc1cccc(C(=O)Nc2ccc(C(F)(F)F)cc2C(F)(F)F)c1)c1ccc(Cl)cc1 [1-345] | ≥ 70
O=C(Nc1c(Cl)cc(Br)cc1C(F)(F)F)c1cccc(NC(=O)c2c(F)cccc2F)c1 [1-418] | ≥ 70
COc1ccccc1C(=O)Nc1cccc(C(=O)Nc2c(Br)cc(Br)cc2C(F)(F)F)c1 [1-331] | ≥ 70
Cc1cc(OC(C(F)(F)F)C(F)(F)F)ncc1NC(=O)c1cccc(N(C)C(=O)c2ccccc2F)c1Cl [1-600] | ≥ 70
Cc1cc(Oc2ncc(C(F)(F)F)cc2Cl)cc(Br)c1NC(=O)c1cccc(NC(=O)c2cccnc2Cl)c1 [1-579] | ≥ 70
Cc1cc(OC(F)(F)C(F)C(F)(F)F)cc(C)c1NC(=O)c1cccc(N(C)C(=O)c2cccnc2Cl)c1 (stereo not shown) [2-190] | ≥ 70
O=C(Nc1c(Br)cc(Br)cc1C(F)(F)F)c1cccc(NC(=O)c2ccccc2Oc2ccccc2)c1 [1-332] | ≥ 70
O=C(Nc1cccc(C(=O)Nc2c(Cl)cc(Br)cc2SC(F)(F)F)c1)c1ccccc1 [1-264] | ≥ 70
Cc1cc(Oc2ncc(C(F)(F)F)cc2Cl)cc(Br)c1NC(=O)c1cccc(N(C)C(=O)c2ccccc2)c1 [1-575] | ≥ 70
O=C(Nc1c(Br)cc(Br)cc1C(F)(F)F)c1cccc(NC(=O)c2c3ccccc3cc3ccccc23)c1 [1-337] | ≥ 70
O=C(Nc1cccc(C(=O)Nc2c(Cl)cc(-c3ccc(F)cc3)cc2SC(F)(F)F)c1)c1ccccc1 [1-581] | ≥ 70
O=C(Nc1c(Br)cc(Br)cc1SC(F)(F)F)c1cccc(NC(=O)c2cccnc2Cl)c1 [1-96] | ≥ 70
CN(C(=O)c1cccnc1Cl)c1cccc(C(=O)Nc2c(Br)cc(-n3nc(C(F)(F)F)cc3C(F)(F)F)cc2Br)c1 [1-586] | ≥ 70
Cc1cc(Cn2nc(C(F)(F)F)cc2C(F)(F)F)cc(Br)c1NC(=O)c1cccc(NC(=O)c2ccccc2F)c1 [1-593] | ≥ 70
O=C(Nc1c(Br)cc(Br)c(SC(F)(F)C(F)(F)C(F)(F)F)c1Br)c1cccc(NC(=O)c2cccnc2Cl)c1 [Compound No. 1-391, N-(2,4,6-tribromo-3-heptafluoro-n-propylthio)phenyl 3-(2-chloropyridine-3-carbonylamino)benzamide] | ≥ 70
O=C(Nc1c(Br)cc(Br)cc1OC(F)(F)F)c1cccc(NC(=O)c2ccccc2F)c1 [1-406] | ≥ 70
Cc1cc(C(F)(C(F)(F)F)C(F)(F)F)cc(C)c1NC(=O)c1cccc(N(C)C(C)c2ccccc2)c1 (stereo not shown) [5-33] | ≥ 70
O=C(Nc1c(Br)cc(-n2nc(C(F)(F)F)cc2C(F)(F)F)cc1Br)c1cccc(NC(=O)c2cccnc2Cl)c1 [1-589] | ≥ 70

Compound | mortality [%]
O=C(Nc1cccc(C(=O)Nc2c(Br)cc(OC(F)(F)C(F)F)cc2Br)c1)c1ccccc1 [2-201] | ≥ 70
Cc1cc(-c2ccc(F)c(F)c2)cc(C)c1NC(=O)c1cccc(NC(=O)c2ccccc2)c1 [1-377] | ≥ 70
Cc1cc(C(F)(C(F)(F)F)C(F)(F)F)cc(C)c1NC(=O)c1cccc(NS(=O)(=O)C(C)C)c1 [4-33] | ≥ 70
Cc1cc(Oc2ncc(C(F)(F)F)cc2Cl)cc(Br)c1NC(=O)c1cccc(NC(=O)c2ccccc2F)c1 [1-577] | ≥ 70
CN(C(=O)c1ccccc1)c1cccc(C(=O)Nc2c(Br)cc(-n3nc(C(F)(F)F)cc3C(F)(F)F)cc2Br)c1 [1-584] | ≥ 70
O=C(Nc1cccc(C(=O)Nc2c(Br)cc(-n3nc(C(F)(F)F)cc3C(F)(F)F)cc2Br)c1)c1ccccc1 [1-587] | ≥ 70
Cc1cc(C(=O)C(F)(F)C(F)(F)C(F)(F)F)cc(C)c1NC(=O)c1cccc(NC(=O)c2ccccc2)c1 [1-385] | ≥ 70
O=C(Nc1cccc(C(=O)Nc2c(Cl)cccc2SC(F)(F)F)c1)c1ccccc1 [1-605] | ≥ 70
Cc1nc(C(F)(C(F)(F)F)C(F)(F)F)nc(C)c1NC(=O)c1cccc(NC(=O)c2ccccc2F)c1 [1-518] | ≥ 70
O=C(Nc1cccc(C(=O)Nc2c(Cl)cc(Oc3ncc(Cl)cc3Cl)cc2Br)c1)c1ccccc1 [1-574] | ≥ 70
O=C(Nc1cccc(C(=O)Nc2c(Br)cc(Cl)cc2SC(F)(F)F)c1)c1ccccc1 [1-265] | ≥ 70
Cc1cc(OC(F)(F)C(F)OC(F)(F)F)cc(C)c1NC(=O)c1cccc(N(C)C(=O)c2cccnc2Cl)c1 (stereo not shown) [2-219] | ≥ 70
Cc1cc(Oc2ncc(C(F)(F)F)cc2Cl)cc(Br)c1NC(=O)c1cccc(NC(=O)c2ccccc2)c1 [1-576] | ≥ 70
Cc1cc(Cn2nc(C(F)(F)F)cc2C(F)(F)F)cc(Br)c1NC(=O)c1cccc(N(C)C(=O)c2ccccc2)c1 [1-595] | ≥ 70
CN(C(=O)c1cccnc1Cl)c1cccc(C(=O)Nc2c(Br)cc(Br)cc2SC(F)(F)F)c1 [1-163] | ≥ 70
O=C(Nc1c(Br)cc(Br)cc1C(F)(F)F)c1cccc(NC(=O)c2ccc3ccccc3n2)c1 [1-333] | ≥ 70
Cc1cc(OC(F)(F)C(F)C(F)(F)F)cc(C)c1NC(=O)c1ccc(F)c(NC(=O)c2ccccc2)c1 (stereo not shown) [2-195] | ≥ 70
N#Cc1ccc(-c2cc(Cl)c(NC(=O)c3cccc(NC(=O)c4ccccc4)c3)c(SC(F)(F)F)c2)cc1 [1-266] | ≥ 70
O=C(Nc1ccc(C(F)(F)F)cc1C(F)(F)F)c1cccc(NC(=O)c2ccc(Cl)cc2Cl)c1 [1-346] | ≥ 70
O=C(Nc1c(Br)cc(OC(F)(F)C(F)F)cc1Br)c1cccc(NC(=O)c2ccccc2F)c1 [2-202] | ≥ 70
O=C(Nc1cccc(C(=O)Nc2c(Br)cc(Br)cc2SC(F)(F)C(F)(F)C(F)(F)F)c1)c1ccc([N+](=O)[O-])cc1 [1-412] | ≥ 70
Cn1nc(-c2ccc(C(F)(F)F)cc2)c(C#N)c1NC(=O)c1cccc(NC(=O)c2ccccc2)c1 [1-553] | ≥ 70
Cc1cc(Oc2ncc(C(F)(F)F)cc2Cl)cc(Br)c1NC(=O)c1cccc(NC(=O)c2c(F)cccc2F)c1 [1-578] | ≥ 70
CN(C(=O)c1ccccc1)c1cccc(C(=O)Nc2c(Cl)cc(-n3nc(C(F)(F)F)cc3C(F)(F)F)cc2Cl)c1 [1-591] | ≥ 70
Cc1cc(OC(F)(F)C(F)C(F)(F)F)cc(C)c1NC(=O)c1cccc(NC(=O)c2cccnc2Cl)c1 (stereo not shown) [2-196] | ≥ 70
